No constants are given. Whether binding was seen depends on the method and setting. A result given as binding can be weak or reduced; the word gives no strength.
Tests used:
[1] = target: human CD147 on the surface of human cell lines (human) (UniProt P35613); test: FACS on human KYSE-70 esophageal epithelial cell line
[2] = target: cynomolgus monkey CD147 on the cynomolgus primary kidney epithelial cell line (cynomolgus monkey); test: FACS on cynomolgus primary kidney epithelial cell line

By UniProt entry, the sequences of proteins in these tests, tags left out. Where a name states a change or a piece, a line headed by the entry shows the natural chain unless it says otherwise.
UniProt P35613: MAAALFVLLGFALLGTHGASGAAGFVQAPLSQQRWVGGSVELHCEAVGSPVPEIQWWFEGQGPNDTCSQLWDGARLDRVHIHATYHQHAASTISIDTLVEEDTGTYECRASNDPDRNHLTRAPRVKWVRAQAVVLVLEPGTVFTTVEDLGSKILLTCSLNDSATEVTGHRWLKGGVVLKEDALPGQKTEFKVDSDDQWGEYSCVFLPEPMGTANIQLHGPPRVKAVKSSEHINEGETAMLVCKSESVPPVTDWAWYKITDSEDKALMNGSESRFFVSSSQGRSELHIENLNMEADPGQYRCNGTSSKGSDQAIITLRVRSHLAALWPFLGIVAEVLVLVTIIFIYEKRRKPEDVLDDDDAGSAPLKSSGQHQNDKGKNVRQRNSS

B1: humanized anti-human CD147 monoclonal antibody hu 3A11 Lc1/Hc1 (antibody, V domains shown)
VH: EVQLVESGGGLVQPGGSLRLSCAASGFTFSNYWMDWVRQAPGKGLEWVGEIRLKSYNYATHYAASVKGRFTISRDDSKNSVYLQMNSLKTEDTAVYYCTAAGTDYWGQGTLVTVSS
VL: DIQMTQSPSSLSASVGDRVTITCRASQSVRTDVGWYQQKPGKAPKLLIYYSSNRYTGVPSRFSGSGSGTDFTLTISSLQPEDFATYYCQQDYSSPYTFGQGTKLEIK
[1]
  binding: binds
[2]
  binding: binds
